Record: PubChem BioAssay AID1159592 (NIAID, 2016)
The whole screen tested 756 reagents; below is a random part of them. Of all reagents, 147 (19%) got an active call. 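Active covers both loss and gain of p65 entry; negative z means weaker NF-kB activation, positive means more nuclear p65.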 A number with no mark means an inactive call. The numbers tell different reagents against one gene apart. Not given: the amount of reagent.

- Aim: 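Which core TLR components make p65 move nuclear in R848-treated mouse macrophages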
- System: RAW264.7 macrophages from mouse bearing reporters for p65 (GFP) and the Tnf promoter (mCherry)
- Reagent: single siRNA against mouse genes
- Time to read-out: 48 to 72 hours after siRNA transfection
- Treatment: R848 TLR ligand for 40 minutes before fixation; dose not given
- Measurement: 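Nuclear over cytoplasmic GFP-p65 signal imaged 40 minutes after R848, plate-normalised by median and MAD, given as robust z versus negative controls, mean of replicates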
- Scale: NF-kB translocation z-score: higher = more p65 moved into the nucleus than in negative-control wells
- Call rule: 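a call of active needs an averaged z beyond 1.5 in either direction; tiers of absolute z at 1, 1.5, 2 and 2.5 are also set by the depositor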
- Calls: active = strong change, either direction; inactive = little change

no.	target gene	reagent no.	NF-kB translocation z-score, replicate mean
1	Ep300	1	-0.716
2	Ep300	2	-1.1
3	Ep300	3	-1.37
4	Ep300	4	-0.269
5	Ep300	5	-1.54 (active)
6	Ep300	6	-1.28
7	Ticam2	1	-1.7 (active)
8	Ticam2	2	0.762
9	Ticam2	3	-0.0751
10	Ticam2	4	0.00492
11	Ticam2	5	-0.146
12	Ticam2	6	-0.963
13	Rela	1	-1.53 (active)
14	Rela	2	-1.34
15	Rela	3	-0.261
16	Rela	4	-1.89 (active)
17	Rela	5	-3.26 (active)
18	Rela	6	-2.46 (active)
19	Ccl3	1	-2.86 (active)
20	Ccl3	2	-0.455
21	Ccl3	3	-0.897
22	Ccl3	4	1.19
23	Ccl3	5	0.124
24	Ccl3	6	-1.59 (active)
25	Nfkbie	1	-0.793
26	Nfkbie	2	-0.715
27	Nfkbie	3	-0.974
28	Nfkbie	4	-1.63 (active)
29	Nfkbie	5	-1.42
30	Nfkbie	6	-0.354
31	Sp1	1	-0.449
32	Sp1	2	0.96
33	Sp1	3	-1.44
34	Sp1	4	0.00132
35	Sp1	5	-1.24
36	Sp1	6	-1.13
37	Tlr7	1	-2.2 (active)
38	Tlr7	2	-3.41 (active)
39	Tlr7	3	-3.1 (active)
40	Tlr7	4	-1.15
41	Tlr7	5	-3.85 (active)
42	Tlr7	6	-2.19 (active)
43	Ikbke	1	-0.00529
44	Ikbke	2	-0.247
45	Ikbke	3	-0.41
46	Ikbke	4	0.0858
47	Ikbke	5	0.326
48	Ikbke	6	-1.17
49	Tnfaip3	1	0.849
50	Tnfaip3	2	-1.09
51	Tnfaip3	3	2.43 (active)
52	Tnfaip3	4	1.58 (active)
53	Tnfaip3	5	0.64
54	Tnfaip3	6	1.21
55	Irak2	1	-2.88 (active)
56	Irak2	2	-1.54 (active)
57	Irak2	3	-3.43 (active)
58	Irak2	4	-2.5 (active)
59	Irak2	5	-2.9 (active)
60	Irak2	6	-3.65 (active)
61	Tbkbp1	1	-0.166
62	Tbkbp1	2	-0.533
63	Tbkbp1	3	1.68 (active)
64	Tbkbp1	4	0.145
65	Tbkbp1	5	0.175
66	Tbkbp1	6	0.41
67	Ube2v1	1	1.23
68	Ube2v1	2	-1.05
69	Ube2v1	3	-0.399
70	Ube2v1	4	0.466
71	Ube2v1	5	0.73
72	Ube2v1	6	-1.35
73	Cd14	1	-0.712
74	Cd14	2	-2.52 (active)
75	Cd14	3	-2.47 (active)
76	Cd14	4	-2.72 (active)
77	Cd14	5	-0.508
78	Cd14	6	0.478
79	Sigirr	1	-1.07
80	Sigirr	2	-2.68 (active)
81	Sigirr	3	-0.717
82	Sigirr	4	-1.81 (active)
83	Sigirr	5	-0.944
84	Sigirr	6	-0.706

Laid out differently: entries from further up
target gene | reagent no. | NF-kB translocation z-score, replicate mean
Rela | 2 | -1.34
Rela | 3 | -0.261
Rela | 4 | -1.89 (active)
Rela | 5 | -3.26 (active)
Rela | 6 | -2.46 (active)
Ccl3 | 1 | -2.86 (active)
Ccl3 | 2 | -0.455
Ccl3 | 3 | -0.897
Ccl3 | 4 | 1.19
Ccl3 | 5 | 0.124
Ccl3 | 6 | -1.59 (active)
Nfkbie | 1 | -0.793
Nfkbie | 2 | -0.715
Nfkbie | 3 | -0.974
Nfkbie | 4 | -1.63 (active)

The list goes on:
no.	target gene	reagent no.	NF-kB translocation z-score, replicate mean
85	Elk4	1	-2 (active)
86	Elk4	2	-0.24
87	Elk4	3	-0.518
88	Elk4	4	-0.136
89	Elk4	5	0.0152
90	Elk4	6	-0.742
91	Tlr2	1	-0.323
92	Tlr2	2	-1
93	Tlr2	3	1.11
94	Tlr2	4	0.8
95	Tlr2	5	-0.698
96	Tlr2	6	0.998
97	Rel	1	-0.417
98	Rel	2	0.396
99	Rel	3	2.03 (active)
100	Rel	4	-0.677
101	Rel	5	1.09
102	Rel	6	-0.155
103	Il1rl1	1	-1.24
104	Il1rl1	2	-1.11
105	Il1rl1	3	-0.414
106	Il1rl1	4	-1.04
107	Il1rl1	5	-1.73 (active)
108	Il1rl1	6	-0.938
109	Ticam1	1	-2.1 (active)
110	Ticam1	2	0.313
111	Ticam1	3	-0.628
112	Ticam1	4	0.168
113	Ticam1	5	-0.271
114	Ticam1	6	-2.29 (active)
115	Relb	1	-0.636
116	Relb	2	-0.218
117	Relb	3	-0.46
118	Relb	4	0.209
119	Relb	5	-0.502
120	Relb	6	0.435
121	Egr1	1	-0.622
122	Egr1	2	-0.669
123	Egr1	3	-0.667
124	Egr1	4	0.174
125	Egr1	5	0.675
126	Egr1	6	0.0317
127	Peli1	1	-0.528
128	Peli1	2	-0.555
129	Peli1	3	-0.798
130	Peli1	4	2.03 (active)
131	Peli1	5	-0.808
132	Peli1	6	-0.799
133	Tnf	1	-0.00669
134	Tnf	2	0.0703
135	Tnf	3	1.43
136	Tnf	4	-0.338
137	Tnf	5	1.36
138	Tnf	6	-1.39
139	Mapk11	1	0.54
140	Mapk11	2	-0.539
141	Mapk11	3	1.66 (active)
142	Mapk11	4	-0.863
143	Mapk11	5	-0.0159
144	Mapk11	6	0.809
